Further values from the same series stand in other lists.
Test system: RNA isoforms in PNN 1-46 SMA type I patient-derived fibroblasts
Test: RNA Abundance Modulation (RNA isoform abundance, iFPM, HiSeq RNA sequencing)
Format: cell-based, human
Conditions: 3 μM
Description: Cells from a cell line of interest are cultured in conditions sufficient to yield the number of cells capable of generating enough RNA for subsequent sequencing steps. Cells from the tested cell line are contacted with a compound described herein.
To culture said cells, they are seeded, at appropriate concentrations in a volume of media in a cell culture container and incubated for 4, 5, 6, 7, 8, 9, 10, or more hours. A concentrated solution of compound in a vehicle (e.g., DMSO) is then added in sufficient volume to result in the intended final concentration of the compound, for example 100 nM, 500 nM, 1 μM, 5 μM, 10 μM, 15 μM, 20 μM, or more. The cells may also be treated with vehicle alone, as a control. A number of replicates of each concentration or control may be made (e.g., 2 replicates). The cells are then incubated at a constant temperature appropriate for cell culture of the particular cell line (e.g., 37° C.) for 6, 12, 18, 24, 48, or more hours. After incubation, the growth medium is removed and the cells are washed with the appropriate buffer (e.g., PBS). Cells are then removed from adherence to the cell culture container by treatment with a solution containing trypsin, and the trypsin subsequently quenched with the appropriate volume of buffer (e.g., DMEM-FBS). The cells are then pelleted with gentle centrifugation (e.g., ≤90×g centrifugal force) and resuspended in a buffer to lyse the cells for extraction of RNA. The cell lysates may then be frozen (e.g., at −80° C.) or, alternately, may immediately be used in a procedure to purify the RNA (e.g. by use of the RNEASY PLUS® minikit). The RNA from cell lysates is eluted in the appropriate volume of buffer (e.g., RNEASE-FREE H2O®). The resulting purified RNA may then be sequenced (e.g., using RNASeq) or analyzed using a human exon array (e.g., by GENECHIP® human exon array) to determine changes in the RNA levels in those cells treated with compound compared to those cells treated only with DMSO. The purified RNA may also be quantified by other methods known in the art.
Using the RNA data obtained from sequencing, exon array, or other methods, a statistical analysis can reveal changes in the RNA levels of compound-treated compared with control. For example, t-test p-values may be calculated for the data obtained through sequencing and exon array methods in order to compare compound-treated cells to those treated with the DMSO control. […] Analysis of the sequencing and exon array data may then also yield predictions about the cause of the aberrant amount of an RNA transcript in the cells (e.g., perturbation of RNA splicing, RNA transcription, or RNA stability). These predictions may be further confirmed by methods known in the art. For example, RT-PCR and RT-qPCR may be used to confirm the change in amount of RNA transcripts for one or more particular transcripts of interest.
Following the methods described above in Example 1, PNN 1-46 SMA type I patient-derived fibroblasts were treated with 300 nM or 3 μM Compounds 774 and 808 in 0.5% DMSO.
700,000 cells were seeded in 10 mL of medium (DMEM plus 10% FBS) in a T-75 flask. Cells were allowed to attach for at least 4 hrs, after which 50 μL of a 200× compound solution (100% DMSO) was added to each well, and the plate was incubated at 37° C. for 24 hrs.
At the end of the incubation period, the supernatant was removed and the cells where washed with PBS. TrypLE (Invitrogen) express solution was added (e.g. 1.5 mL per one T75 flask). The flasks were incubated for 3 to 5 min at 37° C. The trypsin was then quenched, e.g., by adding 10 mL DMEM-FBS.
Next, the cells were pelleted using gentle centrifugation without exceeding 90×g centrifugal force. The supernatant was removed and the cell pellet was re-suspended in 600 μL RLT buffer (the RLT buffer was supplemented with beta-mercaptoethanol according to the RNeasy protocol manual) by pipetting up and down until the pellet was completely dissolved […]

CCc1nc(C)cn2nc(-c3cc(=O)n4cc(C5CCN(C)CC5)cc(C)c4n3)cc12 [Compound 774]
abs (Cpd-DMSO) (FDFT1 AK301617): 6 iFPM | amp FC (x + 1) (FDFT1 AK301617): 5.46 | ave Cpd (FDFT1 AK301617): 6 iFPM | FC (x + 1) (FDFT1 AK311246): 2.1901 | L2FC (x + 1) (FDFT1 AK311246): 1.131 | L2abs (Cpd-DMSO) (FDFT1 AK311246): 8.78 | abs (Cpd-DMSO) (FDFT1 AK311246): 438 iFPM | amp FC (x + 1) (FDFT1 AK311246): 2.19 | ave Cpd (FDFT1 AK311246): 805 iFPM | FC (x + 1) (FDFT1 AK315993): 1.1754 | L2FC (x + 1) (FDFT1 AK315993): 0.233 | L2abs (Cpd-DMSO) (FDFT1 AK315993): 2.24 | abs (Cpd-DMSO) (FDFT1 AK315993): 5 iFPM | amp FC (x + 1) (FDFT1 AK315993): 1.18 | ave Cpd (FDFT1 AK315993): 31 iFPM | FC (x + 1) (FDFT1 AK316033): 1.6594 | L2FC (x + 1) (FDFT1 AK316033): 0.731 | L2abs (Cpd-DMSO) (FDFT1 AK316033): 4.91 | abs (Cpd-DMSO) (FDFT1 AK316033): 30 iFPM | amp FC (x + 1) (FDFT1 AK316033): 1.66 | ave Cpd (FDFT1 AK316033): 75 iFPM | FC (x + 1) (FDFT1 AK316351): 1.0871 | L2FC (x + 1) (FDFT1 AK316351): 0.121 | L2abs (Cpd-DMSO) (FDFT1 AK316351): 2.70 | abs (Cpd-DMSO) (FDFT1 AK316351): 7 iFPM | amp FC (x + 1) (FDFT1 AK316351): 1.09 | ave Cpd (FDFT1 AK316351): 80 iFPM | FC (x + 1) (FDFT1 AK316531): 2.2247 | L2FC (x + 1) (FDFT1 AK316531): 1.154 | L2abs (Cpd-DMSO) (FDFT1 AK316531): 2.81 | abs (Cpd-DMSO) (FDFT1 AK316531): 7 iFPM | amp FC (x + 1) (FDFT1 AK316531): 2.22 | ave Cpd (FDFT1 AK316531): 12 iFPM | FC (x + 1) (FDFT1 NM_004462): 2.8352 | L2FC (x + 1) (FDFT1 NM_004462): 1.503 | L2abs (Cpd-DMSO) (FDFT1 NM_004462): 11.90 | abs (Cpd-DMSO) (FDFT1 NM_004462): 3831 iFPM | amp FC (x + 1) (FDFT1 NM_004462): 2.84 | ave Cpd (FDFT1 NM_004462): 5917 iFPM | FC (x + 1) (FDPS NM_002004): 2.5881 | L2FC (x + 1) (FDPS NM_002004): 1.372 | L2abs (Cpd-DMSO) (FDPS NM_002004): 6.05 | abs (Cpd-DMSO) (FDPS NM_002004): 66 iFPM | amp FC (x + 1) (FDPS NM_002004): 2.59 | ave Cpd (FDPS NM_002004): 107 iFPM | FC (x + 1) (FDPS NM_001135821): 1.6073 | L2FC (x + 1) (FDPS NM_001135821): 0.685 | L2abs (Cpd-DMSO) (FDPS NM_001135821): 7.83 | abs (Cpd-DMSO) (FDPS NM_001135821): 227 iFPM | amp FC (x + 1) (FDPS NM_001135821): 1.61 | ave Cpd (FDPS NM_001135821): 601 iFPM | FC (x + 1) (FDPS NM_001135822): 2.0949 | L2FC (x + 1) (FDPS NM_001135822): 1.067 | L2abs (Cpd-DMSO) (FDPS NM_001135822): 10.29 | abs (Cpd-DMSO) (FDPS NM_001135822): 1254 iFPM | amp FC (x + 1) (FDPS NM_001135822): 2.09 | ave Cpd (FDPS NM_001135822): 2398 iFPM | FC (x + 1) (FDPS NM_001242824): 1.7469 | L2FC (x + 1) (FDPS NM_001242824): 0.805 | L2abs (Cpd-DMSO) (FDPS NM_001242824): 9.81 | abs (Cpd-DMSO) (FDPS NM_001242824): 900 iFPM | amp FC (x + 1) (FDPS NM_001242824): 1.75 | ave Cpd (FDPS NM_001242824): 2103 iFPM | FC (x + 1) (FDPS NM_001242825): 2.1126 | L2FC (x + 1) (FDPS NM_001242825): 1.079 | L2abs (Cpd-DMSO) (FDPS NM_001242825): 4.98 | abs (Cpd-DMSO) (FDPS NM_001242825): 32 iFPM | amp FC (x + 1) (FDPS NM_001242825): 2.11 | ave Cpd (FDPS NM_001242825): 59 iFPM | FC (x + 1) (FER AK293376): 0.2860 | L2FC (x + 1) (FER AK293376): −1.806 | L2abs (Cpd-DMSO) (FER AK293376): 2.99 | abs (Cpd-DMSO) (FER AK293376): 8 iFPM | amp FC (x + 1) (FER AK293376): 3.50 | ave Cpd (FER AK293376): 2 iFPM | FC (x + 1) (FER AK296874): 2.6320 | L2FC (x + 1) (FER AK296874): 1.396 | L2abs (Cpd-DMSO) (FER AK296874): 0.71 | abs (Cpd-DMSO) (FER AK296874): 2 iFPM | amp FC (x + 1) (FER AK296874): 2.63 | ave Cpd (FER AK296874): 2 iFPM | FC (x + 1) (FER AK299855): 0.0926 | L2FC (x + 1) (FER AK299855): −3.433 | L2abs (Cpd-DMSO) (FER AK299855): 6.41 | abs (Cpd-DMSO) (FER AK299855): 85 iFPM | amp FC (x + 1) (FER AK299855): 10.80 | ave Cpd (FER AK299855): 8 iFPM | FC (x + 1) (FER BC058030): 0.7130 | L2FC (x + 1) (FER BC058030): −0.488 | L2abs (Cpd-DMSO) (FER BC058030): 0.21 | abs (Cpd-DMSO) (FER BC058030): 1 iFPM | amp FC (x + 1) (FER BC058030): 1.40 | ave Cpd (FER BC058030): 2 iFPM | FC (x + 1) (FER NM_005246): 0.3210 | L2FC (x + 1) (FER NM_005246): −1.639 | L2abs (Cpd-DMSO) (FER NM_005246): 7.86 | abs (Cpd-DMSO) (FER NM_005246): 232 iFPM | amp FC (x + 1) (FER NM_005246): 3.12 | ave Cpd (FER NM_005246): 109 iFPM | FC (x + 1) (FEZ1 AK296554): 4.2444 | L2FC (x + 1) (FEZ1 AK296554): 2.086 | L2abs (Cpd-DMSO) (FEZ1 AK296554): 1.70 | abs (Cpd-DMSO) (FEZ1 AK296554): 3 iFPM | amp FC (x + 1) (FEZ1 AK296554): 4.24 | ave Cpd (FEZ1 AK296554): 3 iFPM | FC (x + 1) (FEZ1 CCDS44758): 1.3473 | L2FC (x + 1) (FEZ1 CCDS44758): 0.430 | L2abs (Cpd-DMSO) (FEZ1 CCDS44758): 0.99 | abs (Cpd-DMSO) (FEZ1 CCDS44758): 2 iFPM | amp FC (x + 1) (FEZ1 CCDS44758): 1.35 | ave Cpd (FEZ1 CCDS44758): 7 iFPM | FC (x + 1) (FEZ1 NM_005103): 1.6738 | L2FC (x + 1) (FEZ1 NM_005103): 0.743 | L2abs (Cpd-DMSO) (FEZ1 NM_005103): 7.49 | abs (Cpd-DMSO) (FEZ1 NM_005103): 180 iFPM | amp FC (x + 1) (FEZ1 NM_005103): 1.67 | ave Cpd (FEZ1 NM_005103): 447 iFPM | FC (x + 1) (FEZ1 NM_022549): 0.0317 | L2FC (x + 1) (FEZ1 NM_022549): −4.980 | L2abs (Cpd-DMSO) (FEZ1 NM_022549): 6.11 | abs (Cpd-DMSO) (FEZ1 NM_022549): 69 iFPM | amp FC (x + 1) (FEZ1 NM_022549): 31.56 | ave Cpd (FEZ1 NM_022549): 1 iFPM | FC (x + 1) (FHOD3 AB051482): 0.3516

Source: patent US10688099B2, “Methods for modulating the amount of RNA transcripts” (PTC Therapeutics, Inc., priority 2013, dated 2020)
